System: melanoma A375 tumor cell line
Experiment: MTT reduction assay, A375 melanoma cells
Assay type: cell-based, human
Settings: for times more toxic against the A375 cancer cell line than the normal BJ line: A375 vs BJ, 72 h; for Selectivity index SI = IC50 (BJ)/ IC50 (A375): BJ vs A375, 72 h
Procedure: The cytotoxic activity was measured against the melanoma A375 tumor cell line (ECACC) and the human BJ fibroblast cell line (ATCC) using an MTT reduction assay. The selectivity index (SI) was calculated using the following formula: SI = IC50 (BJ)/ IC50 (A375).
The A375 cell line was purchased from the European Collection of Authenticated Cell Cultures (ECACC, Salisbury, UK) and the BJ human fibroblast cell line from the American Type Culture Collection (ATCC, Manassas, VA, USA). All the cell lines were grown as a monolayer in standard conditions: 37 °C, 100% humidity, under an atmosphere of 5% CO2. […] The BJ cell line was grown in EMEM with EBSS, NEAA and sodium pyruvate with L-Glutamine supplemented, 10% fetal bovine serum and 50 IU/mL penicillin/streptomycin.
Next, the cells were seeded in 96-well plates at a density of 5000 cells per well and incubated overnight to reach the logarithmic growth phase. […] After 72 h, 10 µL of MTT solution (5 g/L) was added into each well and incubated for an additional four hours. Subsequently, the medium was removed, and 100 µL of dimethyl sulfoxide (DMSO) was added into each well. The absorbance was then measured at 570 nm using a SPECTROstar Nano microplate reader (BMG Biotech Inc., Cary, NC, USA)/Tecan Spark 10M. The mean value from three independent BJ and A375 cell cultures was taken to calculate the cell viability, expressed as a percentage of the control values, i.e., untreated cells assumed as 100%.

| SMILES | times more toxic against the A375 cancer cell line than the normal BJ line | Selectivity index SI = IC50 (BJ)/ IC50 (A375) |
| --- | --- | --- |
| Cc1ncc([N+](=O)[O-])n1CCO.Cc1ncc([N+](=O)[O-])n1CCO.O=[N+]([O-])[O-].[Ag+] [[(MTZ)2AgNO3]] | 15 | – |
| Clc1ccc(COC(Cn2ccnc2)c2ccc(Cl)cc2Cl)c(Cl)c1.Clc1ccc(COC(Cn2ccnc2)c2ccc(Cl)cc2Cl)c(Cl)c1.[Ag+].[O-][Cl+3]([O-])([O-])[O-] (stereo not shown) [[Ag(MCZ)2ClO4]] | – | 1.45 |
| Clc1ccc(COC(Cn2ccnc2)c2ccc(Cl)cc2Cl)c(Cl)c1.Clc1ccc(COC(Cn2ccnc2)c2ccc(Cl)cc2Cl)c(Cl)c1.O=[N+]([O-])[O-].[Ag+] (stereo not shown) [[Ag(MCZ)2NO3]] | eight-fold | – |
| Clc1ccc(COC(Cn2ccnc2)c2ccc(Cl)cc2Cl)c(Cl)c1.Clc1ccc(COC(Cn2ccnc2)c2ccc(Cl)cc2Cl)c(Cl)c1.[Ag+].[F][Sb-]([F])([F])([F])([F])[F] (stereo not shown) [[Ag(MCZ)2SbF6]] | – | 0.86 |

Source: publication PMC11121064 (International Journal of Molecular Sciences, 2024)
